Measurements from PMC10464048.
No constants are given. Whether binding was seen depends on the method and setting. Binding seen in cells or lysates may run through a third protein. A yes stands for co-enrichment or nearness to the bait. Other partners may have been found.

Protein sequences, listed by entry. Tags and fused reporters are not part of them.
UniProt P62993: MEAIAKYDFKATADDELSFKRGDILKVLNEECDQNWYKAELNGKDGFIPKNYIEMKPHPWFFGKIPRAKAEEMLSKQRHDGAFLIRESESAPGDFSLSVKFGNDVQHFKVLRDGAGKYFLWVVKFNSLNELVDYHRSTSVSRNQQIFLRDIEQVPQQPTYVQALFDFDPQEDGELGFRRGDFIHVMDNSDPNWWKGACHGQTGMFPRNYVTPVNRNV
UniProt P17931: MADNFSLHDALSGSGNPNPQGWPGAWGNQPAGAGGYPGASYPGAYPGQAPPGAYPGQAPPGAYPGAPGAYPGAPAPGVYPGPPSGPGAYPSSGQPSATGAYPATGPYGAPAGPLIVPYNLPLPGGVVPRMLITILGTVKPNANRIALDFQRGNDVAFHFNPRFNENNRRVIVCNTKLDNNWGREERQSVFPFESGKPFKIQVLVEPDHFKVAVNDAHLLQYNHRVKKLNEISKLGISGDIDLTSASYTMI

T1: RING Finger Protein 173 (UniProt Q86UD3)
T1 sequence: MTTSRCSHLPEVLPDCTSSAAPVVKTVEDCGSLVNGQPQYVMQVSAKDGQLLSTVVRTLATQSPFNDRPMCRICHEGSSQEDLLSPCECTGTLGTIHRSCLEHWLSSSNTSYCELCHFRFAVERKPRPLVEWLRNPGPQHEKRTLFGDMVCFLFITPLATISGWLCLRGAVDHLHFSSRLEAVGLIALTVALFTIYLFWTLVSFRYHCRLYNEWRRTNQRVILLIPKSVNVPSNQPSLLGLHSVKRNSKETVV


Target: T1, RING Finger Protein 173
Experiment: affinity purification with mass spectrometry; IP from cell lysate with FLAG antibody against IgG control, protein A agarose beads, silver staining, mass spectrometry of gel bands

binding | Molecule
binds | Growth Factor Receptor Bound Protein 2 (from UniProt P62993 1-217)
binds | LGALS3 (from UniProt P17931 1-250)
binds | SLC25A6 (protein, UniProt P12236 1-298) MTEQAISFAKDFLAGGIAAAISKTAVAPIERVKLLLQVQHASKQIAADKQYKGIVDCIVRIPKEQGVLSFWRGNLANVIRYFPTQALNFAFKDKYKQIFLGGVDKHTQFWRYFAGNLASGGAAGATSLCFVYPLDFARTRLAADVGKSGTEREFRGLGDCLVKITKSDGIRGLYQGFSVSVQGIIIYRAAYFGVYDTAKGMLPDPKNTHIVVSWMIAQTVTAVAGVVSYPFDTVRRRMMMQSGRKGADIMYTGTVDCWRKIFRDEGGKAFFKGAWSNVLRGMGGAFVLVLYDELKKVI
